Results deposited as PubChem BioAssay AID1159578 (Peter MacCallum Cancer Centre, 2015).
Assay: 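Knock-downs that alter how fast lymphatic endothelial cells migrate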 (primary screen). Cell system: human lymphatic endothelial cells. Reagent: siRNA pool against human genes, 40 nM. Time to read-out: 48 h after transfection. Measurement: 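High-content imaging of dye-stained cells in a scratch assay measures filled wound area and nuclei per well; duplicate means given as ratio to mock and robust z-score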. Scale: migration robust z-score: higher = faster migration into the scratch; nuclei per well: higher = more cells in the well. Rule for the call: 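Pools averaging fewer than 3300 nuclei are never called; remaining pools count as changed when migration robust z lies outside -2 to 2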. Meaning of the calls: active = migration changed; inactive = no migration change, or too few cells.
The whole screen tested about 18,000 reagents; shown is an unselected part. About 1,030 of them (5.7%) count as active. 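Inactive calls also include pools with fewer than 3300 nuclei, whose migration was not assessed.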 The raw values are shown without normalisation. Not all columns of the deposit are shown. No sequences are given here.

Against KRT79 (keratin 79) [SID255365005], the values are migration robust z-score 0.26; migration class with cell-count check migration z between -2 and 2; enough cells; nuclei per well, duplicate mean 4781; inactive.
Knock-down of PACSIN1 (protein kinase C and casein kinase substrate in neurons 1) [SID255357269] came out at: migration robust z-score -0.08; migration class with cell-count check migration z between -2 and 2; enough cells; nuclei per well, duplicate mean 5226; inactive.
ABTB1 (ankyrin repeat and BTB domain containing 1) [SID255360759] gave migration robust z-score -0.34; migration class with cell-count check migration z between -2 and 2; enough cells; nuclei per well, duplicate mean 5752; inactive.
Silencing of CCDC81 (coiled-coil domain containing 81) [SID255359720] resulted in: migration robust z-score -0.22; migration class with cell-count check migration z between -2 and 2; enough cells; nuclei per well, duplicate mean 5612; inactive.
After knock-down of DNASE2B (deoxyribonuclease 2 beta) [SID255359653] the results were migration robust z-score 0.24; migration class with cell-count check migration z between -2 and 2; enough cells; nuclei per well, duplicate mean 6107; inactive.
NSUN5 (NOP2/Sun RNA methyltransferase 5) [SID255358783] showed migration robust z-score 0.13; migration class with cell-count check migration z between -2 and 2; enough cells; nuclei per well, duplicate mean 5744; inactive.
Depletion of MAPKAP1 (MAPK associated protein 1) [SID255360222] resulted in: migration robust z-score 0.52; migration class with cell-count check migration z between -2 and 2; enough cells; nuclei per well, duplicate mean 5645; inactive.
ATOH7 (atonal bHLH transcription factor 7) [SID255364246] showed migration robust z-score -0.17; migration class with cell-count check migration z between -2 and 2; enough cells; nuclei per well, duplicate mean 6385; inactive.
For GPR148 (G protein-coupled receptor 148) [SID255365176], the values are migration robust z-score 0.11; migration class with cell-count check migration z between -2 and 2; enough cells; nuclei per well, duplicate mean 4576; inactive.
With knock-down of CRB2 (crumbs cell polarity complex component 2) [SID255364906], the record shows migration robust z-score 0.39; migration class with cell-count check migration z between -2 and 2; enough cells; nuclei per well, duplicate mean 5590; inactive.
After knock-down of ZNF695 (zinc finger protein 695) [SID255359275] the results were migration robust z-score -0.47; migration class with cell-count check migration z between -2 and 2; enough cells; nuclei per well, duplicate mean 6412; inactive.
With knock-down of PDCD2 (programmed cell death 2) [SID255351461], the record shows migration robust z-score -0.26; migration class with cell-count check migration z between -2 and 2; enough cells; nuclei per well, duplicate mean 5412; inactive.
CLEC18A (C-type lectin domain family 18 member A) [SID255365243] gave migration robust z-score 0.41; migration class with cell-count check migration z between -2 and 2; enough cells; nuclei per well, duplicate mean 6387; inactive.
With knock-down of SLFNL1 (schlafen like 1) [SID255364028] the results were migration robust z-score -1.27; migration class with cell-count check migration z between -2 and 2; enough cells; nuclei per well, duplicate mean 7702; inactive.
Knock-down of FER (FER tyrosine kinase) [SID255349661] gave: migration robust z-score -1.66; migration class with cell-count check migration z between -2 and 2; enough cells; nuclei per well, duplicate mean 5552; inactive.
For CHRD (chordin) [SID255353705], the entry reads migration robust z-score -1.04; migration class with cell-count check migration z between -2 and 2; enough cells; nuclei per well, duplicate mean 4590; inactive.
With knock-down of CHGA (chromogranin A) [SID255348901] the results were migration robust z-score 0.96; migration class with cell-count check migration z between -2 and 2; enough cells; nuclei per well, duplicate mean 6244; inactive.
With knock-down of HAUS3 (HAUS augmin like complex subunit 3) [SID255360288] the results were migration robust z-score 0.05; migration class with cell-count check migration z between -2 and 2; enough cells; nuclei per well, duplicate mean 6664; inactive.

Entries listed so far whose target name begins with A or a (2):
ABTB1 (ankyrin repeat and BTB domain containing 1) [SID255360759] — migration robust z-score: -0.34; migration class with cell-count check: migration z between -2 and 2; enough cells; nuclei per well, duplicate mean: 5752; Outcome: inactive
ATOH7 (atonal bHLH transcription factor 7) [SID255364246] — migration robust z-score: -0.17; migration class with cell-count check: migration z between -2 and 2; enough cells; nuclei per well, duplicate mean: 6385; Outcome: inactive

The results go on.
For NR2E1 (nuclear receptor subfamily 2 group E member 1) [SID255352893] the deposit lists migration robust z-score -0.15; migration class with cell-count check migration z between -2 and 2; enough cells; nuclei per well, duplicate mean 7774; inactive.
With knock-down of TRIM13 (tripartite motif containing 13) [SID255354894], the screen gave migration robust z-score 0.73; migration class with cell-count check migration z between -2 and 2; enough cells; nuclei per well, duplicate mean 6702; inactive.
Depletion of DENND5A (DENN domain containing 5A) [SID255356112] resulted in: migration robust z-score -0.29; migration class with cell-count check migration z between -2 and 2; enough cells; nuclei per well, duplicate mean 5726; inactive.
LHX8 (LIM homeobox 8) [SID255365878] showed migration robust z-score 1.31; migration class with cell-count check migration z between -2 and 2; enough cells; nuclei per well, duplicate mean 5362; inactive.
Depletion of CTNNA2 (catenin alpha 2) [SID255349161] gave: migration robust z-score 0.88; migration class with cell-count check migration z between -2 and 2; enough cells; nuclei per well, duplicate mean 5344; inactive.
For KRT71 (keratin 71) [SID255362158] the deposit lists migration robust z-score 0.24; migration class with cell-count check migration z between -2 and 2; enough cells; nuclei per well, duplicate mean 3575; inactive.
Depletion of QSOX2 (quiescin sulfhydryl oxidase 2) [SID255363887] came out at: migration robust z-score -1.71; migration class with cell-count check migration z between -2 and 2; enough cells; nuclei per well, duplicate mean 5689; inactive.
ZNF311 (zinc finger protein 311) [SID255364627] scored migration robust z-score -0.14; migration class with cell-count check migration z between -2 and 2; enough cells; nuclei per well, duplicate mean 6782; inactive.
With knock-down of OTUB2 (OTU deubiquitinase, ubiquitin aldehyde binding 2) [SID255360143], the record shows migration robust z-score -1.86; migration class with cell-count check migration z between -2 and 2; enough cells; nuclei per well, duplicate mean 3474; inactive.
